{
  "source": "PubChem BioAssay AID1224920",
  "about": "(Broad Institute, 2016)",
  "note": "Inconclusive means that the source gave no clear call. Such entries were picked first, then a sample of the others. Active and inactive are the calls of the source.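 Rule for the calls: active = IC50 no higher than ten times the top tested dose; inconclusive = flat fit with 30 to 70% inhibition, or poor fit; inactive = IC50 above ten times the top dose.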",
  "data": [
    {"assay": "growth modulation of Clostridium difficile isolate – OD600, 9-point, retest, dose response (AID 1224920);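 note: plate controls were DMSO for no effect and levofloxacin control for full effect; inhibitors lower culture turbidity so OD600 falls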", "settings": "Clostridium difficile clinical isolate growth, OD600, 24 h; at 120 µM (top of the series) unless noted", "values": [
      {"smiles": "C[C@@H]1CN([C@@H](C)CO)C(=O)c2cccc(NC(=O)Nc3ccccc3)c2O[C@@H]1CN(C)Cc1ccc(-c2ccccc2)cc1", "activity change, negative = inhibition": "inconclusive: 105%"},
      {"smiles": "C/C=C/c1ccc([C@@H]2[C@@H](CO)N(C(=O)CC)[C@@H]2CNC(=O)CC)cc1", "activity change, negative = inhibition": "inactive: -6.09%"},
      {"smiles": "CN1c2ccc(-c3ccccc3F)cc2[C@H]2[C@H](CCN2C(=O)NC2CCCCC2)[C@@H]1CO", "activity change, negative = inhibition": "inconclusive: 121% [at 135 µM]"},
      {"smiles": "COc1ccc(NC(=O)N2[C@@H]3CNC[C@H]2C3c2ccc(-c3ccc(F)cc3)cc2)cc1", "note": "(some centres undefined)", "activity change, negative = inhibition": "inactive: 39.8% [at 60 µM]"},
      {"smiles": "O=C(NC[C@H]1N[C@H](CO)[C@@H]1c1ccc(-c2ccccc2)cc1)c1cccc(F)c1", "activity change, negative = inhibition": "inconclusive: -18.9% [at 135 µM]"},
      {"smiles": "C[C@H](CO)N1C[C@H](C)[C@@H](CN(C)C(=O)Nc2ccc(C(F)(F)F)cc2)Oc2c(NC(=O)Nc3ccc(C(F)(F)F)cc3)cccc2C1=O", "activity change, negative = inhibition": "inconclusive: 1.59%"},
      {"smiles": "C[C@@H]1CN([C@H](C)CO)C(=O)c2cccc(NC(=O)Nc3ccc(C(F)(F)F)cc3)c2O[C@H]1CN(C)C(=O)Nc1ccc(C(F)(F)F)cc1", "activity change, negative = inhibition": "inconclusive: -11.6% [at 60 µM]"},
      {"smiles": "Cc1ccc(-c2ccc(C3[C@@H]4CN(Cc5cccnc5)C[C@H]3N4)cc2)cc1", "note": "(some centres undefined)", "activity change, negative = inhibition": "inconclusive: -22.7% [at 68 µM]"},
      {"smiles": "COc1ccc(S(=O)(=O)N2CCCCN3[C@H](CO)[C@H](c4ccc(C#CCC(C)C)cc4)[C@H]3C2)cc1", "activity change, negative = inhibition": "inconclusive: -12.8%"},
      {"smiles": "C[C@@H]1CN([C@@H](C)CO)C(=O)c2cccc(NC(=O)Nc3ccc(C(F)(F)F)cc3)c2O[C@@H]1CN(C)Cc1ccc(C(F)(F)F)cc1", "activity change, negative = inhibition": "inconclusive: -18.2% [at 135 µM]"},
      {"smiles": "O=C(c1ccc(F)cc1)N1C[C@@H]2N[C@H](C1)C2c1ccc(-c2ccccc2F)cc1", "note": "(some centres undefined)", "activity change, negative = inhibition": "inconclusive: -18% [at 60 µM]"},
      {"smiles": "COc1ccc(-c2ccccc2[C@@H]2[C@@H](C#N)N(C(=O)NC3CCCCC3)[C@H]2CO)cc1", "activity change, negative = inhibition": "inactive: 9.48%"},
      {"smiles": "Cc1ccccc1-c1ccc([C@@H]2[C@@H](CO)N3CCCCN(S(=O)(=O)c4ccc(F)cc4)C[C@H]23)cc1", "activity change, negative = inhibition": "inactive: -1.33%"},
      {"smiles": "O=C(Nc1cccc(F)c1)N1[C@@H]2CNC[C@H]1C2c1ccc(-c2cccc(F)c2)cc1", "note": "(some centres undefined)", "activity change, negative = inhibition": "inconclusive: -16.7% [at 135 µM]"}
    ]}
  ]
}
